Experiment [1] has as its target actin (S. cerevisiae (endogenous in yeast extract)) (UniProt P60010). The experiment in a line: pull-down; actin captured from total yeast cell lysate by bead-bound bicyclic peptide A15 (F- and G-actin), 1.5 h at 4 °C; 50 mM HEPES pH 7.5, 20 mM NaCl, 1 mM EDTA, 0.1% Triton X-100; recovered fractions probed by western blot. (In general: In western blotting, separated proteins are transferred to a membrane and probed.)

Protein sequences, listed by entry. Tags and fused reporters are not part of them.
UniProt P29469: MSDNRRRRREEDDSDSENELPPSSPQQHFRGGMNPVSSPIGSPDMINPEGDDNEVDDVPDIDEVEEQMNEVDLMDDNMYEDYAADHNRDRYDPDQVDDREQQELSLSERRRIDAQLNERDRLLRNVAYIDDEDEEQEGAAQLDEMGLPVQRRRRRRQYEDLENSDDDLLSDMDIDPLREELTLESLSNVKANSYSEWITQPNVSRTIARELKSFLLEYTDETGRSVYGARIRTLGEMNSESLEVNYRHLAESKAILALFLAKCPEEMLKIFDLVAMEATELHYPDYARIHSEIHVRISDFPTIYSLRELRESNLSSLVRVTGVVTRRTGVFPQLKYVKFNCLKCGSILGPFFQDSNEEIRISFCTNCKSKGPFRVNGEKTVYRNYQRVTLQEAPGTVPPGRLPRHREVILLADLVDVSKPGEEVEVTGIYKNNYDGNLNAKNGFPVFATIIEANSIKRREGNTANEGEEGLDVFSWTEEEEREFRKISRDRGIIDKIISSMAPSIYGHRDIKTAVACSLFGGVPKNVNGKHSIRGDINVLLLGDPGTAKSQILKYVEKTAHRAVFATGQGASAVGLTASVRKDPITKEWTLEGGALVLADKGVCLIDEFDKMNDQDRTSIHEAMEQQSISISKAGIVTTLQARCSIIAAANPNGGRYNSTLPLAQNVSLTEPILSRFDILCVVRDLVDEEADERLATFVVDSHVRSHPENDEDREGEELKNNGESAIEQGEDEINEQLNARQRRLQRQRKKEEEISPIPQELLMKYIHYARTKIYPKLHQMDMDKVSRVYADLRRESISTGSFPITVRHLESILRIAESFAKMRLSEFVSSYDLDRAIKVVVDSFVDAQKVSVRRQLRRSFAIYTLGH

The target is the same in experiment [2]. The experiment in a line: pull-down; actin captured from total yeast cell lysate by bead-bound bicyclic peptide A18 (F-actin specific), 1.5 h at 4 °C; 50 mM HEPES pH 7.5, 20 mM NaCl, 1 mM EDTA, 0.1% Triton X-100; recovered fractions probed by western blot.

Results are given in words; binding and its absence hold for the method and conditions named. Binding seen in cells or lysates may run through a third protein. Some results given as binding are weak or reduced against the parent protein; the word gives no strength.

Mcm2 (from UniProt P29469 1-868): the binding result in experiment [1] and in experiment [2] was “no binding” throughout.

B1: Apn1 (enzyme, UniProt P22936 1-367)
chain: MPSTPSFVRSAVSKYKFGAHMSGAGGISNSVTNAFNTGCNSFAMFLKSPRKWVSPQYTQEEIDKFKKNCATYNYNPLTDVLPHGQYFINLANPDREKAEKSYESFMDDLNRCEQLGIGLYNLHPGSTLKGDHQLQLKQLASYLNKAIKETKFVKIVLENMAGTGNLVGSSLVDLKEVIGMIEDKSRIGVCIDTCHTFAAGYDISTTETFNNFWKEFNDVIGFKYLSAVHLNDSKAPLGANRDLHERLGQGYLGIDVFRMIAHSEYLQGIPIVLETPYENDEGYGNEIKLMEWLESKSESELLEDKEYKEKNDTLQKLGAKSRKEQLDKFEVKQKKRAGGTKRKKATAEPSDNDILSQMTKKRKTKKE
As to B1, the binding result in experiment [1] and in experiment [2] was “binds” in each case.

Values taken from publication PMC11568337.
